Assay results taken from publication PMC9179926.
Read-outs that look alike come from different tables or passages of the source. Results are given in words; binding and its absence hold for the method and conditions named. Binding seen in cells or lysates may run through a third protein. Some binding calls cover weakened binding; strength is not graded here.

The chains behind the UniProt entries cited, without tags or fusion partners.
UniProt Q8N4S9: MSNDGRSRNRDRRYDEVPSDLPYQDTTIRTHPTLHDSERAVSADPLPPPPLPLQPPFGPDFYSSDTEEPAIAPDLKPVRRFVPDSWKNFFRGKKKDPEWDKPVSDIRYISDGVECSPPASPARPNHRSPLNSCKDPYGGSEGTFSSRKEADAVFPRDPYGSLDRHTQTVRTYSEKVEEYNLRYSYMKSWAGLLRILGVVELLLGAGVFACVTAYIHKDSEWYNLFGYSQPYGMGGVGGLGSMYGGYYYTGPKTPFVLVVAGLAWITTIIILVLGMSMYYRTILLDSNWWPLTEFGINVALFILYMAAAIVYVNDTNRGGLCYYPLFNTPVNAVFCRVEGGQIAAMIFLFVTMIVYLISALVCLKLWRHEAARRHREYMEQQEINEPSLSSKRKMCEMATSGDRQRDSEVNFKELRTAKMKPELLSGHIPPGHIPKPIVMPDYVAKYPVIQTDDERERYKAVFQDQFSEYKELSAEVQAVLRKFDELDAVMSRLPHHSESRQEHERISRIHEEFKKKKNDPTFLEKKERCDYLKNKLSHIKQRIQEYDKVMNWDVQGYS

T1: cingulin (CGN) (human (endogenous in A253)) (UniProt Q9P2M7)
T1 sequence: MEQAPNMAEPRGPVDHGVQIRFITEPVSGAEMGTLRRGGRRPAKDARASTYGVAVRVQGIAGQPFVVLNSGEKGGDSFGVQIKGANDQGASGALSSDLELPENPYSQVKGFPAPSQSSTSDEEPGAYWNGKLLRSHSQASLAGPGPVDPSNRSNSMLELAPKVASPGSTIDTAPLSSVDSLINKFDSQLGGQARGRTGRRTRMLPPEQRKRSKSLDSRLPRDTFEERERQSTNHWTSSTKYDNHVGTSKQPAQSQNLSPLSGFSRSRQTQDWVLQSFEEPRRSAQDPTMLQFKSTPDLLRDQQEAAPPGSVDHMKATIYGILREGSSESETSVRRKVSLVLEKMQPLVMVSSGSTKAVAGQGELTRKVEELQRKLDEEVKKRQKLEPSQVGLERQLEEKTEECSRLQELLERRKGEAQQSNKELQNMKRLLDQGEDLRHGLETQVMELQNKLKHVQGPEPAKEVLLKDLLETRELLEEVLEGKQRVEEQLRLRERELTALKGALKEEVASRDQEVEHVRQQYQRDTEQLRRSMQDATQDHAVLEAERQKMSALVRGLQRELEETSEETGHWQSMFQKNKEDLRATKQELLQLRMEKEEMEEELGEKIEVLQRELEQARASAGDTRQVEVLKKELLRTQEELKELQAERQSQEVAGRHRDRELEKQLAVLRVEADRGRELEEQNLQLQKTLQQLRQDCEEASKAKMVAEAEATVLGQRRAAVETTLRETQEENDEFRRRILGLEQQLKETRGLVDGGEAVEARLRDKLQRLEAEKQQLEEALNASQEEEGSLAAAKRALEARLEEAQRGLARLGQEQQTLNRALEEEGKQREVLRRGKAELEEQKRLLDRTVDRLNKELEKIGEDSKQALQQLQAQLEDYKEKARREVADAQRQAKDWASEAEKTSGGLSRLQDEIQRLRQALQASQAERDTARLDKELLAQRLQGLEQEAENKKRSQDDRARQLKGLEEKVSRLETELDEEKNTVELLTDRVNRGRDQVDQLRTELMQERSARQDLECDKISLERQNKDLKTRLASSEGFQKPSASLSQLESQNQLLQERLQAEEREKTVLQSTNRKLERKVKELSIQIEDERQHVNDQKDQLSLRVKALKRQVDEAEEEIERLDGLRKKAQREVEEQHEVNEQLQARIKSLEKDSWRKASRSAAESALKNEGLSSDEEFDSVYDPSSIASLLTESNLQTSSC


Experiments:
[1] = target: T1, cingulin (CGN) (human (endogenous in A253)); test: co-IP; A253 cells treated with or without TSA and JNJ (quisinostat) at 10 uM in the presence of EW-7197 and SP600125 at 10 uM; NP-40 lysis buffer (50 mM Tris-HCl, 2% NP-40, 0.25 mM sodium deoxycholate, 150 mM NaCl, 2 mM EGTA); polyclonal anti-CGN antibody on protein A-Sepharose CL-4B overnight at 4 °C; Western blot of the immunoprecipitates
[2] = target: T1, cingulin (CGN) (human (endogenous in A253)); test: as above; remark: listed apart in the source

binding [1] | binding [2] | Molecule
binds weakly |  | tricellulin (TRIC) (from UniProt Q8N4S9 1-558)
 | no binding | claudin-7 (CLDN-7) (protein, UniProt O95471 1-211) MANSGLQLLGFSMALLGWVGLVACTAIPQWQMSSYAGDNIITAQAMYKGLWMDCVTQSTGMMSCKMYDSVLALSAALQATRALMVVSLVLGFLAMFVATMGMKCTRCGGDDKVKKARIAMGGGIIFIVAGLAALVACSWYGHQIVTDFYNPLIPTNIKYEFGPAIFIGWAGSALVILGGALLSCSCPGNESKAGYRVPRSYPKSNSSKEYV
 | no binding | angulin-1/lipolysis-stimulated lipoprotein receptor (LSR) (protein, UniProt Q86X29 1-649) MQQDGLGVGTRNGSGKGRSVHPSWPWCAPRPLRYFGRDARARRAQTAAMALLAGGLSRGLGSHPAAAGRDAVVFVWLLLSTWCTAPARAIQVTVSNPYHVVILFQPVTLPCTYQMTSTPTQPIVIWKYKSFCRDRIADAFSPASVDNQLNAQLAAGNPGYNPYVECQDSVRTVRVVATKQGNAVTLGDYYQGRRITITGNADLTFDQTAWGDSGVYYCSVVSAQDLQGNNEAYAELIVLGRTSGVAELLPGFQAGPIEDWLFVVVVCLAAFLIFLLLGICWCQCCPHTCCCYVRCPCCPDKCCCPEALYAAGKAATSGVPSIYAPSTYAHLSPAKTPPPPAMIPMGPAYNGYPGGYPGDVDRSSSAGGQGSYVPLLRDTDSSVASEVRSGYRIQASQQDDSMRVLYYMEKELANFDPSRPGPPSGRVERAMSEVTSLHEDDWRSRPSRGPALTPIRDEEWGGHSPRSPRGWDQEPAREQAGGGWRARRPRARSVDALDDLTPPSTAESGSRSPTSNGGRSRAYMPPRSRSRDDLYDQDDSRDFPRSRDPHYDDFRSRERPPADPRSHHHRTRDPRDNGSRSGDLPYDGRLLEEAVRKKGSEERRRPHKEEEEEAYYPPAPPPYSETDSQASRERRLKKNLALSRESLVV
